Consider two compounds from PubChem BioAssay AID252 (DTP/NCI, 2004).

The list is a part of this screen's results and no random one: it is rich in T/C values a quarter to a half above the control, in often repeated tests (any T/C) and in doses without a T/C. Other doses and runs of a compound stand elsewhere. T/C is the treated group as % of the vehicle group. Some entries give survivors of the animals treated and no T/C: the source files T/C as zero there, which appears to mark a toxic dose or a test without result, not a measured value. Counts of survivors are from the toxicity check (mostly the fifth day) where no day follows; animals may have died later. Schedule codes are those of the source, taken here to give the interval after Q, in days (D) or hours (H), and the number of doses after X. For survival time, the PubChem record calls one and a half times the control and up active, and a quarter to a half above the control has no call in these data; cut-offs in other NCI protocols can differ.

In this test the test system is BDF1 mice, intracerebral L1210 leukemia, survival T/C. Nature of the test: NCI In Vivo Anticancer Drug Screen. Data for tumor model L1210 Leukemia (intracerebral) in B6D2F1 (BDF1) mice. To be noted: T/C endpoint: mean survival time, vehicle: carboxymethylcellulose (CMC), higher T/C = longer survival; for survivor count: schedule: Q01DX001 (ip). Put shortly:
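Antitumour effect is judged in mice with transplanted tumour by comparing survival of treated (T) against vehicle-dosed (C) groups as T/C.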

For `CN(N=O)C(=O)NCCCCNC(=O)N(C)N=O`, the survivor count runs as follows: (dose: 600.0 mg/kg/injection) 1 of 10; (dose: 1000.0 mg/kg/injection) 2 of 10; (dose: 1200.0 mg/kg/injection) 0 of 10; (dose: 2400.0 mg/kg/injection) 0 of 10; (dose: 4800.0 mg/kg/injection) 0 of 10.
Turning to `O=c1[nH]cc(N(CCCl)CCCl)c(=O)[nH]1`, the T/C (dose: 1.7 mg/kg/injection, schedule: Q01DX015 (ip)) is 127 % of control.
